The target of assay [1] is T1, RIP140 (endogenous, mouse embryonic fibroblasts) (mouse (endogenous in MEFs)) (UniProt Q8CBD1).
T1 sequence: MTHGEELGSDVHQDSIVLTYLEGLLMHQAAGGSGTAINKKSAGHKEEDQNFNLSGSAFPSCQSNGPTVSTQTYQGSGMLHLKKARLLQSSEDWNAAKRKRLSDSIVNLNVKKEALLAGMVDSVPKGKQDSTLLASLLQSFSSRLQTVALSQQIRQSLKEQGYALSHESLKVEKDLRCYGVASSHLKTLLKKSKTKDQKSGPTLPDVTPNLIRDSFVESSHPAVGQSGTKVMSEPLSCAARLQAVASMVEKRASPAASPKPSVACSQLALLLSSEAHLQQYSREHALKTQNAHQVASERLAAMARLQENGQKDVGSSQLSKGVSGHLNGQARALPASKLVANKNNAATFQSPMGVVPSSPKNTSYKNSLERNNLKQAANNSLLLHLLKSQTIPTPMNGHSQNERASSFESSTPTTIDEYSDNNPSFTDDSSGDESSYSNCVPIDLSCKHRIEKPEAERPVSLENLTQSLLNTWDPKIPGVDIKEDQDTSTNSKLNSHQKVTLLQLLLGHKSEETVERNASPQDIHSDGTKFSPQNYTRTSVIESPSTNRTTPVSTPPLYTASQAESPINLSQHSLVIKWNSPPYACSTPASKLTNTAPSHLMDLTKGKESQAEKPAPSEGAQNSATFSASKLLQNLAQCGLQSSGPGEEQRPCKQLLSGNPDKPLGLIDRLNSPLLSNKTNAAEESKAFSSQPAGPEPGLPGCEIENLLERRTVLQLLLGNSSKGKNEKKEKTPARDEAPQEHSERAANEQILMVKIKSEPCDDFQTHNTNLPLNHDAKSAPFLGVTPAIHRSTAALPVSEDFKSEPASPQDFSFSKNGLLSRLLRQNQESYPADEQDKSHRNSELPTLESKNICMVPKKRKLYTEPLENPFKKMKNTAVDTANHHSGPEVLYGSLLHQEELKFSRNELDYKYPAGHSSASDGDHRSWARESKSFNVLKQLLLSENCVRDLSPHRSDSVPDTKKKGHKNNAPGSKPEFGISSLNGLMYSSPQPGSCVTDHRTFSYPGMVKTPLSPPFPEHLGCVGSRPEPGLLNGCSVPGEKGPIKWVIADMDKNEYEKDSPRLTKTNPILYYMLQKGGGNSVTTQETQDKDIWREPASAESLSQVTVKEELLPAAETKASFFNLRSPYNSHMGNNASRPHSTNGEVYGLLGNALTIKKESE
The experiment in a line: proximity ligation.

By UniProt entry, the sequences of proteins in these tests, tags left out.
UniProt P02340: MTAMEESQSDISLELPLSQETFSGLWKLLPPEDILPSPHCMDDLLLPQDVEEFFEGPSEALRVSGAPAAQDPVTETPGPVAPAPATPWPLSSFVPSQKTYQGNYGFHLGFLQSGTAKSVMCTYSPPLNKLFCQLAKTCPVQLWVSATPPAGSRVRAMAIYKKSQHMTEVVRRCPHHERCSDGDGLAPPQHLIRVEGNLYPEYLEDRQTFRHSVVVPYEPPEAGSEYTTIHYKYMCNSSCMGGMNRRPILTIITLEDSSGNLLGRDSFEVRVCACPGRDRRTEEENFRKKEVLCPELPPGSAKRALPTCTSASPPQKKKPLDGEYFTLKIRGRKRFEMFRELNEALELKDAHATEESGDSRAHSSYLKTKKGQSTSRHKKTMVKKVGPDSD
UniProt P97481: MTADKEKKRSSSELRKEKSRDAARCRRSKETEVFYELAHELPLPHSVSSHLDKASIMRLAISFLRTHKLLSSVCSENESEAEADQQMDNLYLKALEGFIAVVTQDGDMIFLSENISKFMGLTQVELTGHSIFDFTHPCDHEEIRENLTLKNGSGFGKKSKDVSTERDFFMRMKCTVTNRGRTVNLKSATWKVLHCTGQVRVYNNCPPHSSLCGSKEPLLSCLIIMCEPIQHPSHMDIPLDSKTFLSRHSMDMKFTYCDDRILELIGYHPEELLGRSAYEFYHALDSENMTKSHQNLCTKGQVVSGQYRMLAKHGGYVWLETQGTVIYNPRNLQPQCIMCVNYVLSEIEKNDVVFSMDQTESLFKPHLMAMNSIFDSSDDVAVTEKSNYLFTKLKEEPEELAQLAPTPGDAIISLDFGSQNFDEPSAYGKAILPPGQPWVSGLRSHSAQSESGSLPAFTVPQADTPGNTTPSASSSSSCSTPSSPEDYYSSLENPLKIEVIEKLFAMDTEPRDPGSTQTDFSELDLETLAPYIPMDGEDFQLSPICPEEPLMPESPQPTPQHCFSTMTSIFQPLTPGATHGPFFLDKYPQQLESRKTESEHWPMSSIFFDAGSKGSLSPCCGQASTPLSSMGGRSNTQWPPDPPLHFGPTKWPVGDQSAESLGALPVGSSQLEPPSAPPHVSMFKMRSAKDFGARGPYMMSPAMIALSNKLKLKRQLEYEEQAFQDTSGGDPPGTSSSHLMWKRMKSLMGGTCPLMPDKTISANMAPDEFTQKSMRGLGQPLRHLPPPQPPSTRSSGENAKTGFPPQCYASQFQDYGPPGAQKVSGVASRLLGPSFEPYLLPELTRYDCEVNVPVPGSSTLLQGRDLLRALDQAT

Assay [2] addresses p53 (endogenous, mouse embryonic fibroblasts) (mouse (endogenous in MEFs)) (UniProt P02340). Kind of assay: proximity ligation.

These are yes or no findings as the source states them, for the method shown. In cells and extracts the contact can be indirect. Some binding calls cover weakened binding; strength is not graded here.

Consider “p53 (endogenous, mouse embryonic fibroblasts) (from UniProt P02340 1-390)”, for which the binding result in assay [1] was “binds”.
As for “HIF-2α (endogenous, mouse embryonic fibroblasts) (from UniProt P97481 1-874)”, the binding result in assay [2] and in assay [1] was “binds” throughout.

Values taken from publication doi:10.1101/2020.07.30.228759.
